# Test results as given in publication doi:10.1101/2022.06.06.494986.
# Sequences of proteins named here, by UniProt entry; tags and fusion partners are left off. Residues count along the entry.
# UniProt P20339: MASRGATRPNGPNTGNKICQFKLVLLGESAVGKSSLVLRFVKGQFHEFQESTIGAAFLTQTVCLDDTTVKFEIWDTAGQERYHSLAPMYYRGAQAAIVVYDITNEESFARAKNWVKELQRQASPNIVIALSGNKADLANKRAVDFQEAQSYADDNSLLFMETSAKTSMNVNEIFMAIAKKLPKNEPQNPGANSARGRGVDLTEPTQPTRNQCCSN
# UniProt P35968, residues 20-1356: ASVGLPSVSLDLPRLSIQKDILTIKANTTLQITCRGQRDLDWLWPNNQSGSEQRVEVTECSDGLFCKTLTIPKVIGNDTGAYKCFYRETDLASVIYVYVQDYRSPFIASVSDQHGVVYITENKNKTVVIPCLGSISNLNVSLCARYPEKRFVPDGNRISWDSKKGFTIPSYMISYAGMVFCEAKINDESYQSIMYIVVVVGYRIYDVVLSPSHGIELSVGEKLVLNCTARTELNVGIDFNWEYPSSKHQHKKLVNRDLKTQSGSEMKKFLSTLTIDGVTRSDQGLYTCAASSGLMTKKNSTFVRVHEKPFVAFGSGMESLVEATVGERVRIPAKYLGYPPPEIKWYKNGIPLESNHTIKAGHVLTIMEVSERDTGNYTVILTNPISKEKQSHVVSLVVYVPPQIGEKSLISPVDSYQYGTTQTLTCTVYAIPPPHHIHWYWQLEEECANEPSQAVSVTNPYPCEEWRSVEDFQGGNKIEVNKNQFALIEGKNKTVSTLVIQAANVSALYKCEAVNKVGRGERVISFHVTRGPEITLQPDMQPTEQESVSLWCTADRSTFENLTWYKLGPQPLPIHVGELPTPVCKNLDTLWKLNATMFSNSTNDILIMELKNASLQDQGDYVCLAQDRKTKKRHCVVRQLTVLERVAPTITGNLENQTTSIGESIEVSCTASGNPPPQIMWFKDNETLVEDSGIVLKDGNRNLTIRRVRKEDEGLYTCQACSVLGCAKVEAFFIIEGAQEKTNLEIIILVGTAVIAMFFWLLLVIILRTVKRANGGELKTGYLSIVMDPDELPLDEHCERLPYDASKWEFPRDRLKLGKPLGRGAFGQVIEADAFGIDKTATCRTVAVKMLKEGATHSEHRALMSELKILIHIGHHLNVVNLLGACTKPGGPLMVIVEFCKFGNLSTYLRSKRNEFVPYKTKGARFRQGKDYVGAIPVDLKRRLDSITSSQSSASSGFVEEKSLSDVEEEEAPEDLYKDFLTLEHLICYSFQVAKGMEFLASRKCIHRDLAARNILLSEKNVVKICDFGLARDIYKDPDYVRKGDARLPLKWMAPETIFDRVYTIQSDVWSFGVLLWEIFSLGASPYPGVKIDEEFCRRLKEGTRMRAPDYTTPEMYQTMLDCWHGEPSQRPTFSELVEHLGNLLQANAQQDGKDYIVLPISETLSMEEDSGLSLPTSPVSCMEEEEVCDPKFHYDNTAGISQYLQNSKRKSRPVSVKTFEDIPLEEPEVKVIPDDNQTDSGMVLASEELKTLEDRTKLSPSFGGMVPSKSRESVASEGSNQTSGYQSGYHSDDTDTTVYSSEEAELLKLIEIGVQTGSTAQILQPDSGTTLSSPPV
# UniProt Q9NQT8: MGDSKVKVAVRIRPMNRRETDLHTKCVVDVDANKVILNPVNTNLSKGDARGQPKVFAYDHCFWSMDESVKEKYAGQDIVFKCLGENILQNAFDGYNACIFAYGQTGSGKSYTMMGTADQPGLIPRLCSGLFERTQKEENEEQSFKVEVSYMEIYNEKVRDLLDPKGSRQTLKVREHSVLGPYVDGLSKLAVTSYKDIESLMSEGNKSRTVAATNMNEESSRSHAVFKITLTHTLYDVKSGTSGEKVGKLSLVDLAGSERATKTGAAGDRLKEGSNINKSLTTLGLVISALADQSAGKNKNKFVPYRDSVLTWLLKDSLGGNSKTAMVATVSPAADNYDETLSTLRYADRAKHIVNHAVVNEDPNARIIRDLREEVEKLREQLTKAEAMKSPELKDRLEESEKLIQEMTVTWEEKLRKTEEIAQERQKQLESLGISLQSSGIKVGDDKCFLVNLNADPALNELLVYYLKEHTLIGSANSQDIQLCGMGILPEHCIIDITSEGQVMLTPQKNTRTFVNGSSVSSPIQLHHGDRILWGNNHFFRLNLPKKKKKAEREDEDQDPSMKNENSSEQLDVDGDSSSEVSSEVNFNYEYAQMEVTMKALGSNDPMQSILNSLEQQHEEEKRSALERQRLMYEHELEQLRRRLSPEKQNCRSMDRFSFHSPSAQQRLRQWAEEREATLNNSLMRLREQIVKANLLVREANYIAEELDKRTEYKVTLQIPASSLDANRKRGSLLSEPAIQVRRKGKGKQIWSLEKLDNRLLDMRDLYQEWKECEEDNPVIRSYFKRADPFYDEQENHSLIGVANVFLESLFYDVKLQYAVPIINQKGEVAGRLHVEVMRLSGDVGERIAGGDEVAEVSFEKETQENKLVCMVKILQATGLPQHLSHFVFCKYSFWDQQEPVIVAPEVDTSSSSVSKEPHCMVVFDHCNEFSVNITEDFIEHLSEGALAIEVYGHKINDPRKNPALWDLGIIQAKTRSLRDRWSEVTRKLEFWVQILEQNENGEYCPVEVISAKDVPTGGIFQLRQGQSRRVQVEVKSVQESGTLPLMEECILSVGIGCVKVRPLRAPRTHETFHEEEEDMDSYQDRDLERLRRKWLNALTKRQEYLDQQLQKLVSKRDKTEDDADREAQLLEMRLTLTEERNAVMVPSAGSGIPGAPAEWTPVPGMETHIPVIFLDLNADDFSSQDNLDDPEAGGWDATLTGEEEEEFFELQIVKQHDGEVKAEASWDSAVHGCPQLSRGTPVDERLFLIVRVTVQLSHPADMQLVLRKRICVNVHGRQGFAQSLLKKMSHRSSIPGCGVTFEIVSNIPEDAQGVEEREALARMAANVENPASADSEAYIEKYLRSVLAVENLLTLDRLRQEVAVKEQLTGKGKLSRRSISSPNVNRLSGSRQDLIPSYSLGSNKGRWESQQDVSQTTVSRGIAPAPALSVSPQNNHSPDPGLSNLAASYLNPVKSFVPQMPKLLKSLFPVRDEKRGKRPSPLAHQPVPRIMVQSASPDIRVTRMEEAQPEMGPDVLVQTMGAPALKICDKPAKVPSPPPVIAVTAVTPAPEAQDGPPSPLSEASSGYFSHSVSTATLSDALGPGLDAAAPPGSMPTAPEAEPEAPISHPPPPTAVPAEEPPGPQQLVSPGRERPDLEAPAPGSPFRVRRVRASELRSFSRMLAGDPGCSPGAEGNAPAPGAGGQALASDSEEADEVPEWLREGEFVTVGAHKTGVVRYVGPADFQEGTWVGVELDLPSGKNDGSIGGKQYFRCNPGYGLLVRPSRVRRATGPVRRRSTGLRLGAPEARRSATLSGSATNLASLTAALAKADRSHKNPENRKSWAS
# These are yes or no findings as the source states them, for the method shown. Binding seen in cells or lysates may run through a third protein. Some binding calls cover weakened binding; strength is not graded here.
# Target: Rab5A (human (endogenous in hREC)) (UniProt P20339)
# Test: co-IP
row,binding,Substance
1,binds,VEGFR2 (from UniProt P35968 20-1356) (receptor)
2,binds,KIF13B (from UniProt Q9NQT8 1-1826)
